From article PMC10868123

The chains behind the UniProt entries cited, without tags or fusion partners. Where a name states a change or a piece, a line headed by the entry shows the natural chain unless it says otherwise.
UniProt P61026: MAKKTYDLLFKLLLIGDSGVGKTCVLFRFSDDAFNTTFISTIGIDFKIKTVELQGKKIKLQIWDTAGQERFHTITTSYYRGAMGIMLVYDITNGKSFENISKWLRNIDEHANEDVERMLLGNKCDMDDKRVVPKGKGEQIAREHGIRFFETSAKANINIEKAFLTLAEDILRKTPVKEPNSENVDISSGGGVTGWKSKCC
UniProt Q709C8: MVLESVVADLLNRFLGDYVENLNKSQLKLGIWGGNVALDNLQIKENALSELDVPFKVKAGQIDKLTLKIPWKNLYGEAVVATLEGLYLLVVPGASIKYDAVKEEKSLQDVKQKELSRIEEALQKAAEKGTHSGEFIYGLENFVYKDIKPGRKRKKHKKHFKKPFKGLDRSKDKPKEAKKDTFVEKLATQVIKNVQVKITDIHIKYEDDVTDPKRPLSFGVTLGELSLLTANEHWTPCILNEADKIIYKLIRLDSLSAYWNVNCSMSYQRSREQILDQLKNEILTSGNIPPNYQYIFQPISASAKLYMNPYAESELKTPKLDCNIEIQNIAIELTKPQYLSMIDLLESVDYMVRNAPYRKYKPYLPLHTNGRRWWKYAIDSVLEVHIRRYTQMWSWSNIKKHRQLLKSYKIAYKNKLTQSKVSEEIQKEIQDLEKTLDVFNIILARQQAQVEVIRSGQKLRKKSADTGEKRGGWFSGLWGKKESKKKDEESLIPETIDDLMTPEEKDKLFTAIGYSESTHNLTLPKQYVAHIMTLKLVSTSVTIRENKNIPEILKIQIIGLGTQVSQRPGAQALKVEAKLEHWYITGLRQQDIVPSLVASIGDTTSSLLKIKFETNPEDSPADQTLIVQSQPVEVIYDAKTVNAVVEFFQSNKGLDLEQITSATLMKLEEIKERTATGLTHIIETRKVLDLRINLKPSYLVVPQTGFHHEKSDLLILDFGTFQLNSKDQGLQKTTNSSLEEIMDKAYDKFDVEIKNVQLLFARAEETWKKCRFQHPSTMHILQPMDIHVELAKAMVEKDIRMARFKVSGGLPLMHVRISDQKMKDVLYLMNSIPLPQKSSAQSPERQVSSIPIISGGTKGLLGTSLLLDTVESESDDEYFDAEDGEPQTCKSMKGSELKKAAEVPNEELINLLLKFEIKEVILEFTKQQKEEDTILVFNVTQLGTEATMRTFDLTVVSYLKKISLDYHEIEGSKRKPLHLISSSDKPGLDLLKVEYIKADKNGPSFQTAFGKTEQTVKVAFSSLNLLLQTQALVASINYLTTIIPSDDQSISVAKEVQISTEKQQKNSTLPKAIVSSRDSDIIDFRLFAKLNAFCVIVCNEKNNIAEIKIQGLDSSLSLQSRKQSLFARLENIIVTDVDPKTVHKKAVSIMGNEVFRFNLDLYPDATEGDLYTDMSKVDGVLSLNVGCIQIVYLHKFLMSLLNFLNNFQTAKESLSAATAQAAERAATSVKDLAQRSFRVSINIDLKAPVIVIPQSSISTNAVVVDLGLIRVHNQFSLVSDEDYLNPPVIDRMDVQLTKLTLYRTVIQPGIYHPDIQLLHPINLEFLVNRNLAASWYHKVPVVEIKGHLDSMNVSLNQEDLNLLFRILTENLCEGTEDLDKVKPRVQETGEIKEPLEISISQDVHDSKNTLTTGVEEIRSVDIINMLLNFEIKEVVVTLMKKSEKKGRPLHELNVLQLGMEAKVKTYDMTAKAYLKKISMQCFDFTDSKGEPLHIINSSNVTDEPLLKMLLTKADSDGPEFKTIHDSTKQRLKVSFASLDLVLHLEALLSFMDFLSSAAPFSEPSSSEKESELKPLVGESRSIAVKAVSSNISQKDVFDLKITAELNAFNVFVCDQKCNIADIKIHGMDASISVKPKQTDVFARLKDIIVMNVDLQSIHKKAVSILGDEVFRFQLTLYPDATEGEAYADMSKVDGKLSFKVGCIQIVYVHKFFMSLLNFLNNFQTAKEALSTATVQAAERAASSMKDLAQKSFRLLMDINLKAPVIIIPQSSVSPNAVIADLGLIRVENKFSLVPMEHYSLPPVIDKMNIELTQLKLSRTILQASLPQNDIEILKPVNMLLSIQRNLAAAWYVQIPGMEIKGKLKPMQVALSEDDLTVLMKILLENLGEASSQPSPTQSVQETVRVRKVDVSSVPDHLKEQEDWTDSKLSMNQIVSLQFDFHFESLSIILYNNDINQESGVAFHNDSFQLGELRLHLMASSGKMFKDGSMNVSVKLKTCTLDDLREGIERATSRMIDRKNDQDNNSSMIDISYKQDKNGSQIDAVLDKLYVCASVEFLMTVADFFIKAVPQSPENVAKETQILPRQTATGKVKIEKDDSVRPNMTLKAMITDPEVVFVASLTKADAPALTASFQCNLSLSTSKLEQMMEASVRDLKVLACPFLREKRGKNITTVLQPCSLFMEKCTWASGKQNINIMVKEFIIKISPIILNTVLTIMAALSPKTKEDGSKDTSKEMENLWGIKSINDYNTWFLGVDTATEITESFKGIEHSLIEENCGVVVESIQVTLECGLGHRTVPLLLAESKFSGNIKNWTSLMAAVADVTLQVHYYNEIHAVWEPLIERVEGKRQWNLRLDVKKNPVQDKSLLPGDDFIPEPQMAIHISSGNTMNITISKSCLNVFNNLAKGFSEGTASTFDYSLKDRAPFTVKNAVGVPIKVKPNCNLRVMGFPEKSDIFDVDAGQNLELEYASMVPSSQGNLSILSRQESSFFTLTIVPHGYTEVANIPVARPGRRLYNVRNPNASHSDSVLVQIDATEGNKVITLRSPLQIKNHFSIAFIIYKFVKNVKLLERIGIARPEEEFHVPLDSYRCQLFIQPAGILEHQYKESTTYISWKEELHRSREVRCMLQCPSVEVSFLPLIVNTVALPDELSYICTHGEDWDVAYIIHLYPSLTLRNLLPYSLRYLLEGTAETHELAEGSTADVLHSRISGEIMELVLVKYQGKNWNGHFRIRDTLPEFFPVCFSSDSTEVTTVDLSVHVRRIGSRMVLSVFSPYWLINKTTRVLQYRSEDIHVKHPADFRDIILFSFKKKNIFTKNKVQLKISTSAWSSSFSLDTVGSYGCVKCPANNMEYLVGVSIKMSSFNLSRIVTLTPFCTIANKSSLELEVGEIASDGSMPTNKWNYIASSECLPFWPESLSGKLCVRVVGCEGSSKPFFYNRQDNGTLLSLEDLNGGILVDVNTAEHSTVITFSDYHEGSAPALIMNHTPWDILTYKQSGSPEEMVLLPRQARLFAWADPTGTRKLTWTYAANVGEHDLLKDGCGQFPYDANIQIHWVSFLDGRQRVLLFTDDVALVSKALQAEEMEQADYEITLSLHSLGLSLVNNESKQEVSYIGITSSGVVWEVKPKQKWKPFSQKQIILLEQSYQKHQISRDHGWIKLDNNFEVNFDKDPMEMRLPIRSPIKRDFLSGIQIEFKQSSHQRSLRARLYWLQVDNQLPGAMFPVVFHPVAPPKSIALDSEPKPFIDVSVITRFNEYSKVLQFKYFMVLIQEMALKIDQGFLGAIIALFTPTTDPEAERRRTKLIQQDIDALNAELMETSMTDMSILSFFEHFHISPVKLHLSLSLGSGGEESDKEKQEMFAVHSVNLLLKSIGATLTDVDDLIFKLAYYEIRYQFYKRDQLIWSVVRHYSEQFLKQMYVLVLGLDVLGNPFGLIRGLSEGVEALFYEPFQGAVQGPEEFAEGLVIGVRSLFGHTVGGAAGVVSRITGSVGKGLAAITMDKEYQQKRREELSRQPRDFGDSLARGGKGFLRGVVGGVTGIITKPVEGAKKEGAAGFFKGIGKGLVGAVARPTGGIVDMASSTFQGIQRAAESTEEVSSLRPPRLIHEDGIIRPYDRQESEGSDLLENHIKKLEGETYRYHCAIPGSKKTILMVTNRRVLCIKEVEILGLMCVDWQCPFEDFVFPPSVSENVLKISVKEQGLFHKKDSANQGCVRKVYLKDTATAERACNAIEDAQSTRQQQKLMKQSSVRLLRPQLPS

Columns and labels:
[1] = biological target: phosphomimetic GFP-Rab10 T73E (UniProt P61026); assay: affinity purification with mass spectrometry; GFP-Rab10 WT, T73E, T73A or mock-GFP precipitated with GFP-Trap beads from lysate of transfected HEK-293 T cells; on-bead trypsin digestion, Orbitrap Fusion Tribrid MS; T73E compared with T73A
[2] = biological target: phosphodeficient GFP-Rab10 T73A (UniProt P61026); assay: as above

Row | Molecule | binding [1] | binding [2]
1 | VPS13C, endogenous in HEK-293 cells (from UniProt Q709C8 1-3753) | binds | 
2 | GDP-dissociation inhibitor 1 (GDI1) (protein, UniProt P31150 1-447) MDEEYDVIVLGTGLTECILSGIMSVNGKKVLHMDRNPYYGGESSSITPLEELYKRFQLLEGPPESMGRGRDWNVDLIPKFLMANGQLVKMLLYTEVTRYLDFKVVEGSFVYKGGKIYKVPSTETEALASNLMGMFEKRRFRKFLVFVANFDENDPKTFEGVDPQTTSMRDVYRKFDLGQDVIDFTGHALALYRTDDYLDQPCLETVNRIKLYSESLARYGKSPYLYPLYGLGELPQGFARLSAIYGGTYMLNKPVDDIIMENGKVVGVKSEGEVARCKQLICDPSYIPDRVRKAGQVIRIICILSHPIKNTNDANSCQIIIPQNQVNRKSDIYVCMISYAHNVAAQGKYIAIASTTVETTDPEKEVEPALELLEPIDQKFVAISDLYEPIDDGCESQVFCSCSYDATTHFETTCNDIKDIYKRMAGTAFDFENMKRKQNDVFGEAEQ |  | binds
3 | GDI2 (protein, UniProt P50395 1-445) MNEEYDVIVLGTGLTECILSGIMSVNGKKVLHMDRNPYYGGESASITPLEDLYKRFKIPGSPPESMGRGRDWNVDLIPKFLMANGQLVKMLLYTEVTRYLDFKVTEGSFVYKGGKIYKVPSTEAEALASSLMGLFEKRRFRKFLVYVANFDEKDPRTFEGIDPKKTTMRDVYKKFDLGQDVIDFTGHALALYRTDDYLDQPCYETINRIKLYSESLARYGKSPYLYPLYGLGELPQGFARLSAIYGGTYMLNKPIEEIIVQNGKVIGVKSEGEIARCKQLICDPSYVKDRVEKVGQVIRVICILSHPIKNTNDANSCQIIIPQNQVNRKSDIYVCMISFAHNVAAQGKYIAIVSTTVETKEPEKEIRPALELLEPIEQKFVSISDLLVPKDLGTESQIFISRTYDATTHFETTCDDIKNIYKRMTGSEFDFEEMKRKKNDIYGED |  | binds

These are yes or no findings as the source states them, for the method shown. Binding seen in cells or lysates may run through a third protein. These calls come from enrichment with a bait or labelling near it, and not all partners need be listed.
